Laboratory results as given in publication PMC4172637.
No constants are given. Whether binding was seen depends on the method and setting. In cells and extracts the contact can be indirect. A result given as binding can be weak or reduced; the word gives no strength. For part of these data: Tags and fused reporters may be left off the sequences shown.

Chains of the proteins cited; added tags and fusions are not shown. Lines headed by an entry give the natural chain unless they say otherwise; changes in a name come on top.
UniProt Q9W542: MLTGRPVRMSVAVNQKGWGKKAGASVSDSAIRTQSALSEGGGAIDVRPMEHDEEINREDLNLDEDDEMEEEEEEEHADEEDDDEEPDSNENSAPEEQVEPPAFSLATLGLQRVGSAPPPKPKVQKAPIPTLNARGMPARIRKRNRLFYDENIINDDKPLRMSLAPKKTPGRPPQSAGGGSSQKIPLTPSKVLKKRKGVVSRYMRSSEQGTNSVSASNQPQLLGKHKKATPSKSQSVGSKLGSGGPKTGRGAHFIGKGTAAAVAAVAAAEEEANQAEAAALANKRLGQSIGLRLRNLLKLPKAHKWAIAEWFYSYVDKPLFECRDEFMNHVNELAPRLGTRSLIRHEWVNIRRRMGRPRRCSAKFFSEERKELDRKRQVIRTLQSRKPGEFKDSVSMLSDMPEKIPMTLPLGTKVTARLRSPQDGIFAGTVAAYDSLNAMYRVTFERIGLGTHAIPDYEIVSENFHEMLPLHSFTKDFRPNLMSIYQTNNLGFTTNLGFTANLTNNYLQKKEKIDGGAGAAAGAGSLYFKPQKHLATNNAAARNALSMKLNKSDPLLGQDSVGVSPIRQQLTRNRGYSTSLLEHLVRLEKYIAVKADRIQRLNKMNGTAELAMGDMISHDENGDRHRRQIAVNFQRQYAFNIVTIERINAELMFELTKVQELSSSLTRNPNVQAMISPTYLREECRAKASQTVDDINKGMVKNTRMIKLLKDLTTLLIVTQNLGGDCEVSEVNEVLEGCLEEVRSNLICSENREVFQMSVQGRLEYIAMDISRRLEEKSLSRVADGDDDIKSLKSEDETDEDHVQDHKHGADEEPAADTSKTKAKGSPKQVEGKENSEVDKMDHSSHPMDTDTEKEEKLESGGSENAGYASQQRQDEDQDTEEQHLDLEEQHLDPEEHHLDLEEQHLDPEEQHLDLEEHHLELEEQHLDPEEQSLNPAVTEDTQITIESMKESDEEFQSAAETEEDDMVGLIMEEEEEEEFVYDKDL

Columns and labels:
[1] = biological target: T1, Centrosomal protein 190 (endogenous) (Drosophila (endogenous in S2 cells)) (UniProt Q24478); test: co-IP; endogenous: nuclear extract of wildtype S2 cells precipitated with CP190 or dCTCF specific antibodies; Western blot; mouse IgG as control
T1 sequence: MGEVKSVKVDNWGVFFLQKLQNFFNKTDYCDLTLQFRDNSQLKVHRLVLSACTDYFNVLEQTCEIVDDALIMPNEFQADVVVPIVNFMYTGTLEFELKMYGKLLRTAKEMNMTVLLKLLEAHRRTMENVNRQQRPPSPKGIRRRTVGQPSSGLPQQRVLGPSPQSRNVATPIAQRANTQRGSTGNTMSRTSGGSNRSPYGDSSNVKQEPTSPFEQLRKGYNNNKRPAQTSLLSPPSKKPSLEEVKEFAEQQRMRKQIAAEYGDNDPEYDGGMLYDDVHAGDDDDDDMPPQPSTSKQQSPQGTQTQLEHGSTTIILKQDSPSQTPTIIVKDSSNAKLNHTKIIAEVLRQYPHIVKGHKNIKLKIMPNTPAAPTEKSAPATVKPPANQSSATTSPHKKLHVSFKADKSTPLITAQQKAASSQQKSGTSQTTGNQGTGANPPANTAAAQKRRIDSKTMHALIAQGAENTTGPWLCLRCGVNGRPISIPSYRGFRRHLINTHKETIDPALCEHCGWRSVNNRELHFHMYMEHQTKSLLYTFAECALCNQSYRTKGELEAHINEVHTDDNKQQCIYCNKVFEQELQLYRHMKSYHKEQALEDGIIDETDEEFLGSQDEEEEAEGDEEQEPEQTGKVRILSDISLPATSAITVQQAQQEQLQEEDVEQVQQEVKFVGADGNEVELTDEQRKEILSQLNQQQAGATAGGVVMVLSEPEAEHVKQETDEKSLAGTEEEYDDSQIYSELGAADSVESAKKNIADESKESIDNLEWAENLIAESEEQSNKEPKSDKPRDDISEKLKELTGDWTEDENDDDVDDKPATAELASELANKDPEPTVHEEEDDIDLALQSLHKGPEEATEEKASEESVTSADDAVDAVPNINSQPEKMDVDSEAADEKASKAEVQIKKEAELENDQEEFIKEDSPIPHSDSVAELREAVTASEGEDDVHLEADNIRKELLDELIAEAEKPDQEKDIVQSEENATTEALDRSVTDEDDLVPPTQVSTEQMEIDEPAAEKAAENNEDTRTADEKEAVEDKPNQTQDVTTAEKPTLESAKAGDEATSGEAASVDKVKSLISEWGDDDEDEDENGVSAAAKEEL

[2] = biological target: T2, dCTCF (endogenous) (Drosophila (endogenous in S2 cells)) (UniProt Q9VS55); test: as above
T2 sequence: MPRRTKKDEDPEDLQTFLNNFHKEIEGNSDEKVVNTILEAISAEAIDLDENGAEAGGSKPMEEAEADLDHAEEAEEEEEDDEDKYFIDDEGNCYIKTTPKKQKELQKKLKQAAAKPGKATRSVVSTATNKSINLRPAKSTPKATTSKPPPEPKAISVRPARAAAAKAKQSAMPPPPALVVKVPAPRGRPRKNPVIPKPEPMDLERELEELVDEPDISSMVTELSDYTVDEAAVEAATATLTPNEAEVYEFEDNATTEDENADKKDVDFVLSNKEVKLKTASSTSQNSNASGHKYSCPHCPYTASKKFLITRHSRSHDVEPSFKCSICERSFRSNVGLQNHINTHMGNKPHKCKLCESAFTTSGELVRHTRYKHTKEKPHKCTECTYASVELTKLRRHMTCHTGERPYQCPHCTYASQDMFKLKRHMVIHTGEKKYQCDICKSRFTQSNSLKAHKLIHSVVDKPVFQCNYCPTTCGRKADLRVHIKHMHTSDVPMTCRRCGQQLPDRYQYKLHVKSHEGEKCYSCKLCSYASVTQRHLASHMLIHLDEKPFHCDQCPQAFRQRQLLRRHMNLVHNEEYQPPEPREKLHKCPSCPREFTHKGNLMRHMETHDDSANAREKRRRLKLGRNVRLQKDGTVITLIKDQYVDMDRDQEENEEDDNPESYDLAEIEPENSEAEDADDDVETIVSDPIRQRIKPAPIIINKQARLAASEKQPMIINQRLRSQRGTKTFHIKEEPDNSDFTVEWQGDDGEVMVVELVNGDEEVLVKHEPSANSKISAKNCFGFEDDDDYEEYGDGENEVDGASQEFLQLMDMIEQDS

FLAG-dCTCF (Drosophila) = biological target: T3, FLAG-dCTCF (Drosophila) (UniProt Q9VS55); test: co-IP; FLAG-M2 antibody precipitation from nuclear extract of S2 cells stably expressing FLAG-CP190 or FLAG-dCTCF; washes 20 mM Tris-HCl pH 7.5, 100 mM NaCl, 0.25% NP-40; Western blot; untransfected S2 cells as negative control
T3 sequence: T2 sequence

FLAG-CP190 (Drosophila) = biological target: T4, FLAG-CP190 (Drosophila) (UniProt Q24478); test: as above
T4 sequence: T1 sequence

binding [1]	binding [2]	binding (FLAG-dCTCF (Drosophila))	binding (FLAG-CP190 (Drosophila))	Substance
binds	binds	binds	binds	Mip130 (from UniProt Q9W542)
	binds	binds		Pzg (Drosophila (endogenous in S2 cells))
